Assay results taken from PubChem BioAssay AID2551 (National Center for Advancing Translational Sciences (NCATS), 2010).
The whole screen tested about 310,000 compounds, of which about 17,000 (5.5%) were called active. This list was built around the results that the source calls inconclusive (neither active nor inactive); the mix of calls is not that of the screen. Calls come from the whole dose curve; as a rule, active = well fitted inhibition curve with a large enough effect; inconclusive = small, poorly fitted or top-dose-only effect, or effect the other way; inactive = no such curve, though single readings can be large or run the other way. Where the call is inconclusive, the potency comes from a doubtful curve fit.

By UniProt entry, the sequences of proteins in these tests, tags left out. Where a name states a change or a piece, a line headed by the entry shows the natural chain unless it says otherwise.
UniProt P51450: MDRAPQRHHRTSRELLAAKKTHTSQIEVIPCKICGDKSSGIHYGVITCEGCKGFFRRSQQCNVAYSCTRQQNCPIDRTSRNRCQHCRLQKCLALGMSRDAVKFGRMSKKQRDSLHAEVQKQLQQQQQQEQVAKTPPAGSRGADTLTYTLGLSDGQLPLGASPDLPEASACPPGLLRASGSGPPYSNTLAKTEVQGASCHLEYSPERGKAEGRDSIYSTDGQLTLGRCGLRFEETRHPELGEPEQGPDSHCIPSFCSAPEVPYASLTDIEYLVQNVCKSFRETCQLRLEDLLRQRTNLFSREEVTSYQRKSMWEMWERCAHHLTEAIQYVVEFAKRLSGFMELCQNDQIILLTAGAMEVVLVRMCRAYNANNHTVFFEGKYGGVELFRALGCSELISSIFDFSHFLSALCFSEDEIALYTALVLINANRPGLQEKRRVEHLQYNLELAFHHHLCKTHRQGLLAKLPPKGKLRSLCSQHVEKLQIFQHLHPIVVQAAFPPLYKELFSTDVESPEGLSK

The compounds below were run against Nuclear receptor ROR-gamma (Mus musculus) (UniProt P51450) (assay: qHTS for inhibitors of ROR gamma transcriptional activity). Conditions: Drosophila S2 Gal4-RORgamma UAS-luciferase reporter, 20 h; activity change, negative = inhibition: at 53.6 µM (top of the series).
Summary of the method: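 A Gal4/UAS one-hybrid system in insect cells: metallothionein-promoter Gal4–ROR gamma fusion plus Photinus luciferase reporter. Copper sulfate 700 uM final, 20 hr ambient incubation, luminescent detection after 10 min with reagent.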
% is set by controls: 0 for no effect and ±100 for the full control effect; potency is the fitted concentration of half-maximal effect.
Note: nearly all actives have a fitted effect of over 60% in size.

| Compound | Potency | activity change, negative = inhibition |
| --- | --- | --- |
| O=C1/C(=C/c2cccnc2)CCC/C1=C\c1cccnc1 | active: 1.26 µM | – |
| O=C(CSCc1nc2ccccc2[nH]1)N1CCN(c2ccc(F)cc2)CC1 | inconclusive: 22.4 µM [inhibitor, single point] | – |
| COc1cccc(/C=N/NC(=O)c2ccc(=O)n(C)c2)c1O | active: 0.631 µM | – |
| CN(C)S(=O)(=O)N1CCC(Oc2cccc(C(=O)NC3CCCCC3)c2)CC1 | inconclusive: 11.2 µM [activator, single point] | – |
| C=CCn1c(SCc2csc(C)n2)nc2sc3c(c2c1=O)CCC(C)C3 (stereo not given) | inconclusive: 5.01 µM [activator, single point] | – |
| CC(=O)Oc1c(-c2ccccc2)oc2c(CC=C(C)C)c3c(c(OC(C)=O)c2c1=O)C=CC(C)(C)O3 | inconclusive: 3.55 µM [inhibitor, full curve] | – |
| O=C(CCCc1cccs1)Nc1nc2c(s1)CCCC2 | inconclusive: 35.5 µM [inhibitor, single point] | – |
| CCOc1ccc(Nc2ncnc3c2cnn3-c2ccccc2)cc1 | inconclusive: 0.1 µM [activator, full curve, poor fit] | – |
| COc1ccccc1N1CCN(C(=O)C2CCN(C(=O)c3cccc(Cl)c3)CC2)CC1 | inconclusive: 12.6 µM [activator, single point] | – |
| C/[N+]([O-])=C\CC(=O)c1ccc(-c2ccccc2)cc1 | inconclusive: 1.58 µM [inhibitor, partial curve, poor fit] | – |
| COC(=O)C1=C(C)NC(C)=C(C(=O)OC)C1c1cc2cc(C)ccc2[nH]c1=O | inactive | – |
| Cc1nc(C)c(-c2csc(Nc3cccnc3)n2)s1 | inconclusive: 10 µM [activator, partial curve] | – |
| COc1ccccc1NC(=O)Cc1ccc(-c2ccccc2)cc1 | inconclusive: 15.8 µM [activator, single point] | – |
| COc1ccc(-c2cc3c(=O)n(CC(=O)N4CCN(C)CC4)ncn3n2)cc1 | inconclusive: 25.1 µM [inhibitor, single point] | – |
| CN(C)c1ccc(N=Nc2ccccc2C(=O)OCC(=O)NC2CCCC2)cc1 | inconclusive: 10 µM [activator, single point] | – |
| Cc1cccc(NCc2cc(Cl)cc(Cl)c2O)n1 | inconclusive: 35.5 µM [activator, single point] | – |
| O=C(NCc1ccccc1)c1nc[nH]c1C(=O)NCc1ccccc1 | inactive | – |
| COc1ccc(C(=O)N2N=C(c3ccccc3)CC2(O)C(F)(F)F)cc1 (stereo not given) | active: 15.8 µM | – |
| N#Cc1nc(COc2ccc(-c3ccccc3)cc2)oc1NCCCN1CCOCC1 | inconclusive: 35.5 µM [activator, single point] | – |
| COc1cccc(Nc2nc(NCCO)c3ccccc3n2)c1 | inconclusive: 20 µM [inhibitor, single point] | – |
| Oc1ccc(/C=N/Nc2nccnc2Cl)cc1 | inactive | – |
| Oc1ccccc1/C=N/Nc1nc2ccccc2o1 | active: 0.501 µM | – |
| CCc1nnc(NS(=O)(=O)c2ccc(NC(=S)NC(=O)c3ccc(OC)c(OC)c3)cc2)s1 | – | inactive: -20% [at 10 µM] |
| c1ccc(-n2c(SCc3ccncc3)nnc2-c2ccco2)cc1 | inconclusive: 35.5 µM [activator, single point] | – |

Some of these compounds in order of molecular weight, ascending:

| Compound | Potency | activity change, negative = inhibition |
| --- | --- | --- |
| Oc1ccc(/C=N/Nc2nccnc2Cl)cc1 | inactive | – |
| Cc1nc(C)c(-c2csc(Nc3cccnc3)n2)s1 | inconclusive: 10 µM [activator, partial curve] | – |
| CN(C)c1ccc(N=Nc2ccccc2C(=O)OCC(=O)NC2CCCC2)cc1 | inconclusive: 10 µM [activator, single point] | – |
| C=CCn1c(SCc2csc(C)n2)nc2sc3c(c2c1=O)CCC(C)C3 (stereo not given) | inconclusive: 5.01 µM [activator, single point] | – |
| CC(=O)Oc1c(-c2ccccc2)oc2c(CC=C(C)C)c3c(c(OC(C)=O)c2c1=O)C=CC(C)(C)O3 | inconclusive: 3.55 µM [inhibitor, full curve] | – |
| CCc1nnc(NS(=O)(=O)c2ccc(NC(=S)NC(=O)c3ccc(OC)c(OC)c3)cc2)s1 | – | inactive: -20% [at 10 µM] |

Next part

| Compound | Potency | activity change, negative = inhibition |
| --- | --- | --- |
| N#CC1=C(N)OC2=C(C(=O)CC(c3ccccc3)C2)C1c1ccc2c(c1)OCO2 (stereo not given) | inconclusive: 10 µM [activator, partial curve] | – |
| O=[N+]([O-])c1ccc(Oc2ccc(Oc3ccc(C(F)(F)F)cn3)cc2)nc1 | inconclusive: 10 µM [activator, partial curve] | – |
| COCCNC(=O)COc1ccc(Br)cc1Cl | inconclusive: 12.6 µM [activator, single point] | – |
| CCn1c(CC(=O)Nc2ccccc2)n[nH]c1=S | inconclusive: 14.1 µM [inhibitor, single point] | – |
| CCCn1c(CN2CCN(C(=O)OCC)CC2)nc2c1c(=O)n(C)c(=O)n2C | inconclusive: 17.8 µM [activator, partial curve] | – |
| Cc1nc2ccccc2c(=O)n1/N=C/c1cc(Br)ccc1O | active: 12.6 µM | – |
| COc1ccc(C(=O)N(C)Cc2ccccc2)cc1Br | inconclusive: 20 µM [activator, single point] | – |
| CC(C(=O)Nc1cccc(S(=O)(=O)N2CCOCC2)c1)N1CCN(c2ccc(F)cc2)CC1 (stereo not given) | inconclusive: 35.5 µM [activator, single point] | – |
| CCCc1c(C(=O)N/N=C(\C)CCc2ccccc2)nnn1-c1nonc1N | inconclusive: 20 µM [inhibitor, single point] | – |
| Cc1c(C(=O)N/N=C/c2cccs2)nnn1-c1nonc1N | active: 11.2 µM | – |
| Cc1[nH]n(-c2ccccc2)c(=O)c1/C=N/N1C(=O)c2cccc3cccc(c23)C1=O | active: 7.08 µM | – |
| CC(Oc1ccccc1)C(=O)Nc1cccc(-c2nc3ccccc3[nH]2)c1 (stereo not given) | inconclusive: 17.8 µM [activator, single point] | – |
| CCOCc1c(C(=O)OCC(=O)Nc2ccc(C)c(S(=O)(=O)N(C)C)c2)oc2ccccc12 | inconclusive: 12.6 µM [activator, partial curve] | – |
| CCOC(=O)C1C(=O)C=C(c2ccc(C)cc2)CC1c1ccccc1 (stereo not given) | inactive | – |
| Cc1ccc(CSc2nc3ncccc3[nH]2)cc1 | inconclusive: 22.4 µM [inhibitor, single point] | – |
| Cc1cccc(NC(=S)NC2CCCCCC2)c1C | active: 3.16 µM | – |
| COc1cc2[nH]c(=S)n(C3CCN(Cc4ccccc4)CC3)c(=O)c2cc1OC | inconclusive: 2.82 µM [inhibitor, single point] | – |
| O=C(CCC(=O)Nc1cc(C(F)(F)F)ccc1Cl)N/N=C\c1cc([N+](=O)[O-])ccc1O | active: 2.51 µM | – |
| COc1ccc(-n2ccnc2)cc1 | inconclusive: 8.91 µM [inhibitor, partial curve, poor fit] | – |
| O=C(NC1C2CCCC1CN(C1CC1)C2)c1ccc(Cl)cc1 (stereo not given) | inconclusive: 20 µM [activator, partial curve, poor fit] | – |
| C=C(C)CNC(=S)N/N=C1\CCCCc2ccccc21 | active: 1.41 µM | – |
| Cc1cc(C)c(S(=O)(=O)c2ccccc2C)c(SCC(C)C)n1 | inconclusive: 15.8 µM [activator, single point] | – |
| CC(C)NC(=S)N/N=C1\CCCCC1C1CCCCC1 (stereo not given) | active: 1 µM | – |
| CCOC(=O)c1[nH]c2cc(OC)c(OC)cc2c1NC(=O)CN1CCN(c2ccc(OC)cc2)C(C)C1 (stereo not given) | inconclusive: 35.5 µM [inhibitor, single point] | – |

| Compound | Potency | activity change, negative = inhibition |
| --- | --- | --- |
| COc1ccccc1S(=O)(=O)CC(O)COc1ccc(C#N)cc1 (stereo not given) | inactive | – |
| O=C(CNC(=O)c1ccc(S(=O)(=O)N2CCCC2)cc1)N/N=C/c1ccccc1Cl | inconclusive: 10 µM [activator, partial curve] | – |
| Cc1ccc(-c2nn3c(C)nnc3c3ccccc23)cc1S(=O)(=O)N(C)CCO | inconclusive: 3.55 µM [inhibitor, full curve, poor fit] | – |
| CCc1c(C)c(C#N)c2nc3ccccc3n2c1Cl | active: 2.82 µM | – |
| CC(=O)Nc1ccc(NC2=Nc3ccccc3N3C2=Nc2c(c(C)nn2-c2ccccc2)C3c2ccccc2)cc1 (stereo not given) | active: 0.0891 µM | – |
| CN1CSC2=C(C#N)C(c3cccc(OCc4ccccc4)c3)CC(=O)N2C1 (stereo not given) | inconclusive: 11.2 µM [inhibitor, single point] | – |
| COc1cc(C/C=C/c2ccccc2)c(OC)cc1O | inconclusive: 2 µM [inhibitor, full curve, poor fit] | – |
| CCN(CC)Cc1c(O)ccc2c(=O)c(Oc3ccccc3OC)c(C)oc12 | inactive | – |
| CCCNC(=O)c1oc2ccc3c(c2c1C)C(O)CC(C)(C)O3 (stereo not given) | inactive | – |
| Cc1ccc(OCC(=O)Oc2c(C)cccc2C)cc1 | inactive | – |
| CC(=O)c1ccc(N2CCN(C(=O)c3ccc(OCc4c(C)noc4C)cc3)CC2)cc1 | inconclusive: 17.8 µM [activator, partial curve, poor fit] | – |
| CCc1ccc(OC)c(S(=O)(=O)NCCOc2ccccc2)c1 | inconclusive: 6.31 µM [inhibitor, partial curve] | – |
| Cc1nn2c(nc1=O)NNC2(C)C(C)(C)C (stereo not given) | active: 11.2 µM | – |
| Cc1cccn2c(=O)c3cc(C#N)c(=N)n(CCN4CCOCC4)c3nc12 | inactive | – |
| COc1cc(NC(=O)c2cc(OC)c(OC)c(OC)c2)c(OC)cc1NC(=O)CN1CCCCC1 | inconclusive: 35.5 µM [inhibitor, single point] | – |
| CC(=O)Oc1c(C)c(=O)n(C)c2ccccc12 | inconclusive: 35.5 µM [inhibitor, single point] | – |
| CC(C)(C)NC(=O)N1CCN(c2nc3ccc(Cl)cc3s2)CC1 | inconclusive: 12.6 µM [activator, single point] | – |
| CC(C)c1ccc(/C=C/c2[nH]c(=O)[nH]c(=O)c2[N+](=O)[O-])cc1 | inconclusive: 11.2 µM [inhibitor, single point] | – |
| COc1cccc(N2CCN(S(=O)(=O)c3ccc4c(c3)NC(=O)C(C)C(=O)N4)CC2)c1 (stereo not given) | inconclusive: 0.0056 µM [inhibitor, full curve, poor fit] | – |
| Cc1cc(Cl)ccc1NC(=S)N(CCCN1CCOCC1)Cc1cccs1 | inconclusive: 35.5 µM [inhibitor, single point] | – |
| COCCNC(=O)/C(C#N)=C/c1ccc(C)o1 | inactive | – |
| O=C(c1oc2ccccc2c1CSCc1ccccc1)N1CCN(c2ncccn2)CC1 | inconclusive: 35.5 µM [activator, single point] | – |
